Results taken from US20220142983A1, “METHODS OF TREATING CANCER WITH FARNESYLTRANSFERASE INHIBITORS” (Kura Oncology, Inc., priority 2019, published 2022).
For at least one compound, name, drawing or mass did not settle the structure.

What was measured:
[1] = test system: CXCL12 protein expression levels in human primary bone marrow stromal cells (BMSCs); test: Tipifarnib dose response, CXCL12 ELISA in human primary BMSCs; type: cell-based; conditions: cell supernatants 3 days after treatment, normalized to DMSO control (FIG. 12)
[2] = test system: newly diagnosed elderly patients with poor risk AML; test: Tipifarnib clinical study in newly diagnosed elderly patients with poor risk AML; type: in vivo, human; conditions: higher pre-treatment CXCR3 expression levels (fourth, third, second quartiles) relative to first quartile (FIG. 8)
Method: Clinical studies with tipifarnib were performed in newly diagnosed elderly patients with poor risk AML or relapsed and refractory AML. In these studies, patient selection was not based on genetic markers. Anecdotal evidence of tipifarnib single agent activity was reported.
Patient subset—available AML marrow samples with NRAS WT or unknown, N=27 (NCBI GEO, GSE8970).
Since achievement of CR is the main driver of clinical benefit in AML, additional screenings were conducted to differentiate the CR responses vs HI/SD responses in the higher RHOE expression levels subset of FIG. 3A (replicated in FIG. 4A).
Another screening conducted to differentiate the CR responses and HI/SD responses from PD responses was based on both RHOE expression levels and RHOA expression levels of the subjects shown in FIG. 3A (replicated in FIG. 5). RHOA mRNA expression data was generated by RNASeq and expressed as RNA Seq V2 RSEM.
The mRNA expression profiling data from the clinical study with newly diagnosed elderly patients with poor risk AML were also analyzed for CXCR3, CXCL12, and RHOE. Patient subset—available AML marrow samples with NRAS WT, unknown, N-12, N12/N13, or N61 (1,2); N=34. […] Probe 207681 used for CXCR3 in the GPL96 Affimetrix microarray. […]

Cn1cncc1[C@@](N)(c1ccc(Cl)cc1)c1ccc2c(c1)c(-c1cccc(Cl)c1)cc(=O)n2C [tipifarnib]
CXCL12 protein expression levels [1]: reduces CXCL12 protein expression levels | efficacy of tipifarnib activity in terms of achievement of CR/HI/SD vs. PD [2]: higher efficacy
